Binding data for one molecule are collected here from PMC10013470.

In test [1] the target is T1, Gasdermin D (GSDMD) (human (endogenous in BXPC-3 and Patu-8988t)) (UniProt P57764).
T1 sequence: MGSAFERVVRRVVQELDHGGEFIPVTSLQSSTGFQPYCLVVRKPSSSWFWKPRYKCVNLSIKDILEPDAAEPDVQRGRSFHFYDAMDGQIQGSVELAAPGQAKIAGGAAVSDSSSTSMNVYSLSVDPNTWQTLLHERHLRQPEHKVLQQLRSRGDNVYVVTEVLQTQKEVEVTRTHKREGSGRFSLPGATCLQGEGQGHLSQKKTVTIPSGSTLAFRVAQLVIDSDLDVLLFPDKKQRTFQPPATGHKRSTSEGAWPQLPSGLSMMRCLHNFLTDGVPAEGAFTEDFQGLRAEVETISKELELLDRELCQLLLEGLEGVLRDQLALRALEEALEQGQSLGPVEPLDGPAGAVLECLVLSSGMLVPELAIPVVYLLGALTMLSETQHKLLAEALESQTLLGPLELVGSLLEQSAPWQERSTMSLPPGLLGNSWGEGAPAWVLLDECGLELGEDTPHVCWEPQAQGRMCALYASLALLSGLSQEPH
In words: co-IP; endogenous proteins in RIPA lysates of BXPC-3 and Patu-8988t cells; primary antibody at 4°C overnight, Protein A+G agarose beads, rabbit or mouse IgG as negative control; western blot. A general note: A western blot detects proteins with antibodies after separation by electrophoresis.

For test [2], the target named is T2, Gasdermin E (GSDME) (human (endogenous in BXPC-3 and Patu-8988t)) (UniProt O60443).
T2 sequence: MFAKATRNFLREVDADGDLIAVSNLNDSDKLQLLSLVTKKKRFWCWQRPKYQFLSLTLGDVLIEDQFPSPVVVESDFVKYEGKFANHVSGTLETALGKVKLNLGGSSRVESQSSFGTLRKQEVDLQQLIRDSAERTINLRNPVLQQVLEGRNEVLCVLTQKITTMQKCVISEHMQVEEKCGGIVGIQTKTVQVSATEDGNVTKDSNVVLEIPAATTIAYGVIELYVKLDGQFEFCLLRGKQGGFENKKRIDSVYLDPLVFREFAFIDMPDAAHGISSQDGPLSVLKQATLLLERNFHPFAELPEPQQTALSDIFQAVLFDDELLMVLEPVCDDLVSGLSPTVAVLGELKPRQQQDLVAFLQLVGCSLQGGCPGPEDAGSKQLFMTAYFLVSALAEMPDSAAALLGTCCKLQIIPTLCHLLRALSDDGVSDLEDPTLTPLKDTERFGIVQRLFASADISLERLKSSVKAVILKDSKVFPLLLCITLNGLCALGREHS
Described as above.

No constants are given. Whether binding was seen depends on the method and setting. In cells and extracts the contact can be indirect. Some entries that bind do so weakly or less than the wild type.

B1: Polypeptide N-acetylgalactosaminyltransferase-6 (GALNT6) (enzyme, UniProt Q8NCL4 1-622)
chain: MRLLRRRHMPLRLAMVGCAFVLFLFLLHRDVSSREEATEKPWLKSLVSRKDHVLDLMLEAMNNLRDSMPKLQIRAPEAQQTLFSINQSCLPGFYTPAELKPFWERPPQDPNAPGADGKAFQKSKWTPLETQEKEEGYKKHCFNAFASDRISLQRSLGPDTRPPECVDQKFRRCPPLATTSVIIVFHNEAWSTLLRTVYSVLHTTPAILLKEIILVDDASTEEHLKEKLEQYVKQLQVVRVVRQEERKGLITARLLGASVAQAEVLTFLDAHCECFHGWLEPLLARIAEDKTVVVSPDIVTIDLNTFEFAKPVQRGRVHSRGNFDWSLTFGWETLPPHEKQRRKDETYPIKSPTFAGGLFSISKSYFEHIGTYDNQMEIWGGENVEMSFRVWQCGGQLEIIPCSVVGHVFRTKSPHTFPKGTSVIARNQVRLAEVWMDSYKKIFYRRNLQAAKMAQEKSFGDISERLQLREQLHCHNFSWYLHNVYPEMFVPDLTPTFYGAIKNLGTNQCLDVGENNRGGKPLIMYSCHGLGGNQYFEYTTQRDLRHNIAKQLCLHVSKGALGLGSCHFTGKNSQVPKDEEWELAQDQLIRNSGSGTCLTSQDKKPAMAPCNPSDPHQLWLFV
As for B1, the binding result is “no binding” in test [1] and “binds” in test [2].
